Consider two substances from paper PMC7310287.

By UniProt entry, the sequences of proteins in these tests, tags left out.
UniProt P63208: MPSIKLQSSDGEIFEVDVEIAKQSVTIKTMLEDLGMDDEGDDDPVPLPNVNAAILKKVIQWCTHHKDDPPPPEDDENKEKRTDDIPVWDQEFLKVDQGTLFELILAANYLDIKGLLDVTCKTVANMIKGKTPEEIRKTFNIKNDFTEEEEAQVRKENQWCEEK

The target of one assay is T1, Flag-FBXL6 (human) (UniProt Q8N531).
T1 sequence: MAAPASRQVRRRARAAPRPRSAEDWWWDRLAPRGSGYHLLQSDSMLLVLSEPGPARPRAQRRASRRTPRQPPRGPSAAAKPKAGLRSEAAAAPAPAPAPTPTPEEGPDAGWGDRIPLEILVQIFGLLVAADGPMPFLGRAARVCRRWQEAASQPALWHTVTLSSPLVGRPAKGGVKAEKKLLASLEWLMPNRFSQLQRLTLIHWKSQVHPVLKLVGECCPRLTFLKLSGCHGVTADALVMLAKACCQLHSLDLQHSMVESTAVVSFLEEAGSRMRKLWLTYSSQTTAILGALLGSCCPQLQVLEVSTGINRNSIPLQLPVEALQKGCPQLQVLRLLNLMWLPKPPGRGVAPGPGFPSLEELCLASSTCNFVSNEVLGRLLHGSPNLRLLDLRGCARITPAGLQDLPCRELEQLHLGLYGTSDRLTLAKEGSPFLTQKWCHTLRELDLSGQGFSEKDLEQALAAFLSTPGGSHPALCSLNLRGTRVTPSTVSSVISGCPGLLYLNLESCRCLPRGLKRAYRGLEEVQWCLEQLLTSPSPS
Kind of assay: co-IP; 293T cells expressing Flag-tagged F-box proteins (transfected or infected with retroviruses), Flag M2 resin purification, immunoblot for endogenous partners; IP buffer 100 mM NaCl, 20 mM Tris-Cl pH 8.0, 0.5 mM EDTA, 0.5% Nonidet P-40.

In assay [1] the target is T2, FBXL6 (endogenous) (human (endogenous in Hep3B, SMMC-7721)) (UniProt Q8N531).
T2 sequence: T1 sequence
Kind of assay: co-IP; endogenous proteins; SMMC-7721 cell lysate immunoprecipitated with anti-FBXL6 antibody or IgG, immunoblot for HSP90AA1 and FBXL6.

These are yes or no findings as the source states them, for the method shown. In cells and extracts the contact can be indirect. Some binding calls cover weakened binding; strength is not graded here. For part of these data: Tags and fused reporters may be left off the sequences shown.

Take SKP1 (from UniProt P63208 1-163): the binding entry with Flag-FBXL6 (human) is reported as “binds”.

For HSP90AA1 (from UniProt P07900 1-732), the binding result (in assay [1]; with Flag-FBXL6 (human)) was “binds” throughout.
